Results published in PubChem BioAssay AID2685 (National Center for Advancing Translational Sciences (NCATS), 2010).
This is one part of the list. Further columns of the screen follow, without active or inactive calls. Most of these compounds were active or inconclusive in the main read-out, so they are no random draw. Potencies come from curve fits of mixed quality, noted in brackets.

Assay: qHTS Assay for Lipid Storage Modulators in Drosophila S3 Cells;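 on cell number change: cells counted by Cell Tracker Red CMTPX staining in the red channel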
Settings: BODIPY lipid droplet fluorescence, 18-24 h; for cell number change: measured here: cell count max response, cells fed with added oleic acid
Method in brief: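 Drosophila S3 cells got compounds at several concentrations plus oleic acid (400 uM solution). Laser-scanning cytometry with 488 nm excitation read lipid droplets at 500-530 nm and cells at 575-640 nm. Percent activity was relative to 20 uM Triacsin C.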

[1] = measured here: cell number channel AC50, cells fed with added oleic acid
[2] = measured here: lipid fluorescence (Fed channel) AC50, cells fed with added oleic acid

Structure (SMILES)	cell number change [%]	AC50 [1]	AC50 [2]
Cc1ccc(NC(=O)C2CCN(S(=O)(=O)c3ccc4c(c3)NC(=O)C(C)S4)CC2)cc1Cl (stereo not given)	39.9	29.1 µM [rising, single point]	18.4 µM [falling, partial curve]
CC(=O)c1cccc(N(C(=O)c2csnn2)C(C(=O)NC2CCCC2)c2ccccc2)c1 (stereo not given)	-9.52		29.1 µM [falling, single point]
O=C(CSc1nnnn1-c1ccccc1)NC(=O)Cc1ccccc1	5.82	0.731 µM [falling, single point]	
C=CCn1c(CNC(=O)c2ccccc2F)nnc1SCc1nc2ccccc2c(=O)[nH]1	-8.85		
COCc1cc(C)nc2sc(C(=O)Nc3ccccc3Br)c(N)c12	-7.72		16.4 µM [falling, partial curve]
CCOc1ccccc1CNC(=O)CCCC(=O)n1nc(C)c2ccccc21	-11.6		
CCn1c(SCC(=O)NCCc2ccccc2)nnc1-c1ccco1	0.0444		
O=C(COc1ccc(Br)cc1)Nc1ccc(S(=O)(=O)Nc2ccccn2)cc1			29.1 µM [rising, single point]
Cc1ccc(C)c(N2CCN(c3ccc4cc(S(=O)(=O)N5CCCCC5)ccc4n3)CC2)c1	119	16.4 µM [rising, partial curve]	14.6 µM [rising, partial curve]
O=c1cc(/C=C/c2c(F)cccc2Cl)[nH]c2ccccc12	31.5	29.1 µM [rising, single point]	2.06 µM [falling, partial curve, poor fit]
COc1ccc(S(=O)(=O)N2CCN(CCc3ccccc3)CC2)c(OC)c1			0.58 µM [rising, single point]
COc1ccc(C2=NOC(CNC(N)=S)C2)cc1 (stereo not given)	4.94		0.116 µM [rising, full curve, poor fit]
COc1ccc(C(=O)OCCCOC(=O)c2ccc(OC)cc2OC)c(OC)c1	-5.95		
CCC(=O)Nc1cc(-c2nn(CC(=O)N3CCCCC3)c(=O)c3ccccc23)ccc1N1CCOCC1	48.3	18.4 µM [rising, single point]	
Cc1c(/C=N/NC(=O)c2cccnc2)c2ccccn2c1C(=O)c1ccc(F)cc1	16.7		1.16 µM [rising, partial curve]
COc1ccc(OC)c(/C=N/NC(=O)CCCC(=O)Nc2cccc(Br)c2)c1			29.1 µM [falling, single point]
Cc1csc2nc(NC(=O)c3ccccc3)sc(=O)c12	30.4	14.6 µM [rising, single point]	
CC(=O)c1ccc(N2CCC(c3cc(-c4ccc(Cl)cc4Cl)n[nH]3)CC2)c([N+](=O)[O-])c1	-25.3		
COc1ccccc1OCC(=O)OCc1cc(-c2ccco2)on1	12.1	0.651 µM [falling, single point]	0.731 µM [falling, single point]
COC(=O)c1nn(-c2c(C)n(C)n(-c3ccccc3)c2=O)cc1O			1.84 µM [falling, single point]
O=c1cc(CSc2nnnn2-c2ccccc2)nc(Nc2ccc(F)cc2)[nH]1	-0.482		1.3 µM [falling, partial curve]

Reprinted at random: 4 entries already listed, in no set order.
Structure (SMILES)	cell number change [%]	AC50 [1]	AC50 [2]
Cc1c(/C=N/NC(=O)c2cccnc2)c2ccccn2c1C(=O)c1ccc(F)cc1	16.7		1.16 µM [rising, partial curve]
CCOc1ccccc1CNC(=O)CCCC(=O)n1nc(C)c2ccccc21	-11.6		
Cc1ccc(NC(=O)C2CCN(S(=O)(=O)c3ccc4c(c3)NC(=O)C(C)S4)CC2)cc1Cl (stereo not given)	39.9	29.1 µM [rising, single point]	18.4 µM [falling, partial curve]
Cc1csc2nc(NC(=O)c3ccccc3)sc(=O)c12	30.4	14.6 µM [rising, single point]	

The results go on:

Structure (SMILES)	cell number change [%]	AC50 [1]	AC50 [2]
COc1ccc(Cc2nc(-c3ccc(-n4cccc4)cc3)no2)cc1OC		1.64 µM [rising, partial curve]	2.06 µM [rising, partial curve]
CCn1c(=NC(=O)c2ccco2)sc2cccc(F)c21		0.184 µM [rising, full curve, poor fit]	
CC(=O)c1ccc(OC(=O)c2cccs2)cc1	-35.2	0.92 µM [falling, full curve]	1.3 µM [falling, full curve]
CCCNC(=O)c1c(C)cc(=O)oc1C	74.8		
COc1ccc(-c2nnc(SCC(C)C)o2)cc1			5.17 µM [rising, partial curve]
COc1ccc(C2CC(c3ccc(C)cc3)=NN2C(=O)CCC(=O)O)cc1OC (stereo not given)	-1.02		0.146 µM [rising, full curve, poor fit]
NC(=O)CC(NC(=O)Cc1ccc(Br)cc1)c1ccc(NC2CC3CCC2C3)c([N+](=O)[O-])c1 (stereo not given)	-28.2		
CC(=O)Oc1c(C(=O)c2nnc(C)o2)c(=O)n(C)c2ccccc12	-1.98		0.0058 µM [falling, full curve, poor fit]
COc1ccc(C)cc1NC(=O)/C=C/c1ccc(OC)c(S(=O)(=O)N2CCOCC2)c1	-10.5		7.31 µM [falling, partial curve]
NS(=O)(=O)c1ccc(CCNCC(=O)N2CCC(Cc3ccccc3)CC2)cc1	39.6	6.51 µM [rising, partial curve]	6.51 µM [falling, single point]
O=C(COc1ccccc1Cl)N1N=C(c2cccs2)CC1c1ccco1 (stereo not given)	6.77		0.0731 µM [falling, partial curve, poor fit]
COc1ccc(NC(=O)c2ccccc2OCc2c(C)noc2C)cc1OC	12.7		29.1 µM [rising, single point]
CC(Oc1ccccc1Cl)C(=O)Nc1ccc(S(=O)(=O)N2CCCC2)cc1 (stereo not given)	545	23.1 µM [rising, partial curve]	
Cc1nc2scc(-c3ccccc3)c2c(=O)n1/N=C/c1ccco1	-9.21		4.11 µM [rising, partial curve]
Cc1onc(-c2ccccc2Cl)c1C(=O)N1CCOC12CCCCC2	-6.15		
CCOc1cc(C=O)ccc1OCCCN1C(=O)NC(C)(C)C1=O	18.1		3.66 µM [falling, full curve]
O=[N+]([O-])c1ccc(N/N=C/c2cn(Cc3ccc(F)cc3)c3ccccc23)nc1	14		
Cc1noc(C)c1C(=O)OCC(=O)NCCc1ccc(Cl)cc1	2.17		29.1 µM [rising, single point]
CN1CCN(c2ccc(S(=O)(=O)N3CCCCC3)cn2)CC1	24.1		
COc1ccc(NC(=O)CN2C(=O)/C(=C3\SC(=S)N(C4CCS(=O)(=O)C4)C3=O)c3ccccc32)cc1 (stereo not given)	26.2		3.66 µM [rising, full curve]
CCN(Cc1ccccc1)C(=O)c1cc2cc(OC)c(OC)cc2[nH]1	18.3		0.517 µM [rising, full curve, poor fit]

Structure (SMILES)	cell number change [%]	AC50 [1]	AC50 [2]
CCOC(=O)N1CCN(C(=O)Cn2ncc3c2-c2ccccc2OC3)CC1	61.8	6.51 µM [rising, single point]	6.51 µM [rising, single point]
CCn1c(CNC(=O)c2ccco2)nnc1SCCOc1ccccc1	7.69		
CCOC(=O)Cc1csc(N/N=C\c2ccccc2OC)n1	-16.8		29.1 µM [rising, single point]
Cc1c(Br)c(C(F)(F)F)nn1CC(=O)NCC1CCCO1 (stereo not given)	3.25		0.116 µM [falling, full curve, poor fit]
COc1ccc(NC(=S)N2CCC(Cc3ccccc3)CC2)cc1	8.67		
CCn1c(SCC(N)=O)nc2sc3c(c2c1=O)CCCC3	16.4		
O=C(Nc1cccc(C(=O)NC2CCCCC2)c1)c1ccccc1	-1.74		0.58 µM [falling, single point]
CCOC(=O)c1c(C)nc2ccc(C)cn12	68.1	29.1 µM [rising, single point]	
Cc1ccc(Cn2nc(C)c(C(=O)NCC(c3ccc(F)cc3)N3CCOCC3)c2Cl)cc1 (stereo not given)	6.65	4.61 µM [rising, single point]	
O=C(NC(CO)C(=O)OCc1ccccc1)OCc1ccccc1 (stereo not given)	-21.2	0.092 µM [falling, full curve, poor fit]	0.146 µM [falling, full curve, poor fit]
CCOc1ccc(C(=O)NCC(=O)OCCCOC(=O)CNC(=O)c2ccc(OCC)cc2)cc1	9.38		16.4 µM [rising, partial curve]
N#C/C(=C/c1ccc(C(=O)O)cc1)C(=O)NCc1ccccc1	-99.4	5.17 µM [falling, full curve]	29.1 µM [falling, single point]
O=C(CC1NC(=S)NC1=O)c1ccc(Cl)cc1 (stereo not given)	23.5		11.6 µM [falling, partial curve, poor fit]
CCc1nc2ccc(C(=O)N3CCN(c4cccc(Cl)c4)CC3)cc2nc1CC	33.6	0.231 µM [rising, full curve, poor fit]	1.64 µM [rising, partial curve]
CC(C)CC(=O)Nc1nnc(S(=O)(=O)N2c3ccccc3CC2C)s1 (stereo not given)	24.9		29.1 µM [rising, single point]
O=C(CCC(=O)N1CCOc2ccc(Cl)cc21)NCCCN1CCN(Cc2ccccc2)CC1	14.4		14.6 µM [falling, single point]
COC(=O)c1cc2c(-c3ccccc3)c(C)c3ccccn3c-2c1C(=O)OC	-13.4	6.51 µM [rising, partial curve, poor fit]	
OCCC1CN(CCCc2ccccc2)CCN1CCc1ccccc1 (stereo not given)	12.4		29.1 µM [rising, single point]
CCOC(=O)c1ccc(NS(=O)(=O)c2cc3c(cc2C)NC(=O)CO3)cc1	-31	29.1 µM [falling, single point]	
CCOC(=O)c1cccc(NC(=O)CN(C)S(=O)(=O)c2cnc[nH]2)c1	5.66		29.1 µM [rising, single point]
